Values quoted from earlier work, collected in patent US20170147742A1 (priority 2014, published 2017).
For at least one compound, name, drawing or mass did not settle the structure.

Sequences of proteins named here, by UniProt entry; tags and fusion partners are left off.
UniProt P0A8V2, whole entry: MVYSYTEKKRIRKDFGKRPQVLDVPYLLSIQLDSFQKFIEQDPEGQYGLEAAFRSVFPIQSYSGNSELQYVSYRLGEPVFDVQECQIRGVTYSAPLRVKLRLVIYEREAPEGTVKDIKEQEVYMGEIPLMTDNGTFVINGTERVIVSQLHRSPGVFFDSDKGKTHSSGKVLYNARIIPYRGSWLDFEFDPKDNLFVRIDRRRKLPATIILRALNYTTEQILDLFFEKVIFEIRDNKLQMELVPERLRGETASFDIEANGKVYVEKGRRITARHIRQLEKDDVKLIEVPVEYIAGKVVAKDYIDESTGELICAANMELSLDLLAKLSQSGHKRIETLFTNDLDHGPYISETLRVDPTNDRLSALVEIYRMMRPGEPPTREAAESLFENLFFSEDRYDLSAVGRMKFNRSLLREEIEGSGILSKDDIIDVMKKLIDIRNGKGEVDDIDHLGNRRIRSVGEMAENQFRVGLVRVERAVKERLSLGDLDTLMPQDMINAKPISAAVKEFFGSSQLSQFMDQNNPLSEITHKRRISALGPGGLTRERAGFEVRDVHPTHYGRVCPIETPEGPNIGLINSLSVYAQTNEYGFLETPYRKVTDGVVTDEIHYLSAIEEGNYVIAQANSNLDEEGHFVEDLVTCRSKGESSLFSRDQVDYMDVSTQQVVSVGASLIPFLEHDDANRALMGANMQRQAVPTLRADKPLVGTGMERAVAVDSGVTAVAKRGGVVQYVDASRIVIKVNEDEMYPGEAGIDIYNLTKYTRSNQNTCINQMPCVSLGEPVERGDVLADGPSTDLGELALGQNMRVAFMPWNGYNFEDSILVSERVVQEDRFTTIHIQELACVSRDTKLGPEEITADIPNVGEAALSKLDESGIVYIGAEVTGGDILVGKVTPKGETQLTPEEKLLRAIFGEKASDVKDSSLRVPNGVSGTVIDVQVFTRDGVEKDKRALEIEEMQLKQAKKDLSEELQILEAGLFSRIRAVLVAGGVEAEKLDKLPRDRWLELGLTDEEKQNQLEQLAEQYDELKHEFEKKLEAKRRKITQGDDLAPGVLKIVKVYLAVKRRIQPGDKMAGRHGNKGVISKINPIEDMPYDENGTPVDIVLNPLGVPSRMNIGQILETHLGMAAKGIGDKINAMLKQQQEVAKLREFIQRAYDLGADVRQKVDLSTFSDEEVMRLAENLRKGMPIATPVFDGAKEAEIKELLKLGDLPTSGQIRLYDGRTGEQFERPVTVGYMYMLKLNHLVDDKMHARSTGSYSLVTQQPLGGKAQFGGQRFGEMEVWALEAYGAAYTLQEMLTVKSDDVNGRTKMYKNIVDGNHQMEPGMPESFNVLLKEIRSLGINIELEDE

Molecular target: E. coli RNA polymerase (Escherichia coli, UniProt P0A8V2)
Details: reference (44); cited from earlier work

For `CO[C@H]1/C=C/O[C@@]2(C)Oc3c(C)c(O)c4c(O)c(c(/C=N/N5CCN(C)CC5)c(O)c4c3C2=O)NC(=O)/C(C)=C\C=C\[C@H](C)[C@H](O)[C@@H](C)[C@@H](O)[C@@H](C)[C@H](OC(C)=O)[C@@H]1C` [rifampicin], which “forward rate constant ka for inhibitor binding” value is on record?
Its value is 10^6 M^−1 s^−1.
